# Experimental data as given in article PMC7862700.
# By UniProt entry, the sequences of proteins in these tests, tags left out. Where a name states a change or a piece, a line headed by the entry shows the natural chain unless it says otherwise.
# UniProt Q01892: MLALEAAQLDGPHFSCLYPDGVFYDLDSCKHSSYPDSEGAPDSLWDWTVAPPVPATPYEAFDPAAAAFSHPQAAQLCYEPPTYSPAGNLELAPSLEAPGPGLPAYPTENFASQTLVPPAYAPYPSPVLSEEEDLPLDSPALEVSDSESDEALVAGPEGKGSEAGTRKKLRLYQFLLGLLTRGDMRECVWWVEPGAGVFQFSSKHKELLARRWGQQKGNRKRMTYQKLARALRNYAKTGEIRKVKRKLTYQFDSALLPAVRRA
# The list shows a part of the results, in another mix than the full data. At the low end of the ranking the order means little.
# Molecular target: T1, FLI1 (UniProt Q01543)
# T1 sequence: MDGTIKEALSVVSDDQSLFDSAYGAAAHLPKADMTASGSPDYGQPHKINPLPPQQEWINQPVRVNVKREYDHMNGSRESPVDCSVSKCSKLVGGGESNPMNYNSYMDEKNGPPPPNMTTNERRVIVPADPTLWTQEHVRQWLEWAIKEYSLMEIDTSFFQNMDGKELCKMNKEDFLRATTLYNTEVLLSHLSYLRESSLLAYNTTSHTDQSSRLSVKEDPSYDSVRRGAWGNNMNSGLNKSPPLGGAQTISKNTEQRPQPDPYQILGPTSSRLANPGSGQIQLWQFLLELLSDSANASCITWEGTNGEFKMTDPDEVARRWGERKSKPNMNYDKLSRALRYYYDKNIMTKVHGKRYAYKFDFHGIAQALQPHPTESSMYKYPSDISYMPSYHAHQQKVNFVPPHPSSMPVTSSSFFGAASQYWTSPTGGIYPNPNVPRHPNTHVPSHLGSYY
# Test: DAPPL (digital affinity profiling via proximity ligation, sequencing)
# Conditions: 10 mM Tris-HCl pH 7.5, 50 mM NaCl, 1 mM DTT, 4% glycerol, room temperature, 30 min; GST-TFs on glutathione beads, 16-mer random dsDNA library, 0.1% …; high values mean tight binding; double strand, one strand shown; scale: fold enrichment (6-mer frequency, TF over GST control)
row,Sequence,binding signal
1,TCTAAC,1.18
2,GCCCAT,1.06
3,AATCCA,1.09
4,TTGTTT,1.46
5,TCCTAA,1.63
6,TAAGTT,1.23
7,AACCTA,1.03
8,GATTTG,1.24
9,ACCCCA,1.05
10,TTTGCC,1.42
11,ACGCTC,0.977
12,TAATTA,1.24
13,TGTGGT,1.08
14,CATAAT,0.973
15,GTTTCT,1.36
16,CCTACC,1.21
17,AGCTGT,1.04
18,TAGTGT,1.17
19,AGTGCA,0.989
20,CTTCTC,1.38

row,Sequence,binding signal
1,TGACGC,1.1
2,GAACTG,0.927
3,TTGGCA,1.15
4,CTGCAG,1.13
5,GACTAC,1.17
6,GCTACA,1.16
7,TCCTCG,1.6
8,CCTTCA,1.49
9,AGGAAG,1.24
10,TTCATT,1.25
11,GCGTCT,0.942
12,TTGGGG,1.4
13,TTACGG,1.3
14,GAAGTG,1.46
15,GCAACT,1.22
16,TTTTTT,1.12
17,TAATGG,1.26
18,ATTCTT,1.48
19,CAGATG,1.05
20,CGAAAT,1.05

# Molecular target: T2, EHF (UniProt Q9NZC4)
# T2 sequence: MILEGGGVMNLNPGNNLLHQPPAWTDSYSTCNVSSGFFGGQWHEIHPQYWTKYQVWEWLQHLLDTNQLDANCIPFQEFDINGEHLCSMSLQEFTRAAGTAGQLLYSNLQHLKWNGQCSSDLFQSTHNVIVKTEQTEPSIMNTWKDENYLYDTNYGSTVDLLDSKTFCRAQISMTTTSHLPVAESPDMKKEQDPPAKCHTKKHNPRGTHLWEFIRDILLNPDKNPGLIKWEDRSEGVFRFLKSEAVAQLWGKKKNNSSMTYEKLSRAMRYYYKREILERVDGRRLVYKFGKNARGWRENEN
# Test: as above
# Conditions: 10 mM Tris-HCl pH 7.5, 50 mM NaCl, 1 mM DTT, 4% glycerol, room temperature, 30 min; GST-TFs on glutathione beads, 16-mer random dsDNA library, 0.1% …; high values mean tight binding; double strand, one strand shown; scale: fold enrichment (6-mer frequency, TF over GST control)
row,Sequence,binding signal
1,TCTAAC,1.16
2,GCCCAT,0.95
3,TAAGTT,1.38
4,TTTGCC,1.22
5,ACGCTC,0.984
6,AGCTGT,0.931
7,TAGTGT,1.11
8,CTTCTC,1.37
9,TGACGC,1.21
10,GAACTG,1.01
11,TTGGCA,1.08
12,GCGTCT,1.08
13,TTACGG,1.31
14,GCAACT,1.2
15,TAATGG,1.25
16,CAGATG,0.974

# Molecular target: SPIB (UniProt Q01892)
# Test: as above
# Conditions: 10 mM Tris-HCl pH 7.5, 50 mM NaCl, 1 mM DTT, 4% glycerol, room temperature, 30 min; GST-TFs on glutathione beads, 16-mer random dsDNA library, 0.1% …; high values mean tight binding; double strand, one strand shown; scale: fold enrichment (6-mer frequency, TF over GST control)
row,Sequence,binding signal
1,TCTAAC,1.19
2,TTGTTT,1.52
3,TCCTAA,1.49
4,TAAGTT,1.35
5,TTTGCC,1.31
6,ACGCTC,0.957
7,TAATTA,1.27
8,TTGGCA,1.15
9,GCTACA,1.24
10,AGGAAG,1.44
11,TTACGG,1.38
12,TAATGG,1.37
13,ATTCTT,1.56
14,CAGATG,0.972

# Molecular target: T3, ETV3L (UniProt Q6ZN32)
# T3 sequence: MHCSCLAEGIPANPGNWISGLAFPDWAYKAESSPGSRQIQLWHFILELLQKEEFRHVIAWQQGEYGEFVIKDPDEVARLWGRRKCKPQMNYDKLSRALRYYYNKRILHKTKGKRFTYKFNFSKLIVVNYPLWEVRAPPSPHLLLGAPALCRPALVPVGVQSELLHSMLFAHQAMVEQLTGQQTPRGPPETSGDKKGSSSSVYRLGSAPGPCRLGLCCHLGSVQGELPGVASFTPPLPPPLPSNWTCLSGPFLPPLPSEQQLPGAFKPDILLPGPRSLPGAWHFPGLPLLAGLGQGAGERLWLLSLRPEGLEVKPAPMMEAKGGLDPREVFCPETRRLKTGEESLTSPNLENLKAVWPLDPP
# Test: as above
# Conditions: 10 mM Tris-HCl pH 7.5, 50 mM NaCl, 1 mM DTT, 4% glycerol, room temperature, 30 min; GST-TFs on glutathione beads, 16-mer random dsDNA library, 0.1% …; high values mean tight binding; double strand, one strand shown; scale: fold enrichment (6-mer frequency, TF over GST control)
row,Sequence,binding signal
1,TCTAAC,1.19
2,GCCCAT,0.951
3,AATCCA,0.974
4,TTGTTT,1.46
5,TCCTAA,1.36
6,TAAGTT,1.4
7,AACCTA,1.05
8,GATTTG,1.18
9,ACCCCA,1.09
10,TTTGCC,1.2
11,ACGCTC,0.918
12,TAATTA,1.23
13,TGTGGT,1.04
14,CATAAT,1.01
15,GTTTCT,1.33
16,CCTACC,1.37
17,AGCTGT,0.903
18,TAGTGT,1.04
19,AGTGCA,1.03
20,CTTCTC,1.39

row,Sequence,binding signal
1,TGACGC,1.24
2,GAACTG,0.95
3,TTGGCA,1.14
4,CTGCAG,1.18
5,GACTAC,1.17
6,GCTACA,1.29
7,TCCTCG,1.57
8,CCTTCA,1.21
9,AGGAAG,1.33
10,TTCATT,1.3
11,GCGTCT,1.1
12,TTGGGG,1.3
13,TTACGG,1.22
14,GAAGTG,1.53
15,GCAACT,1.17
16,TTTTTT,1.18
17,TAATGG,1.23
18,ATTCTT,1.46
19,CAGATG,0.982
20,CGAAAT,0.972
